Values from PubChem BioAssay AID1224826 (NIAID, 2016).
In all, the deposit lists about 17,000 reagents; this is an unselected part. Of all reagents, about 1,110 (6.6%) were called active. 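Active means lowered or raised reporter signal; replicate intensities are raw and not normalised per plate.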 Further read-outs or replicates are left out here.

Aim: 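Knock-downs that raise or lower Tnf reporter signal after endotoxin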 (primary screen)
Cell system: RAW264.7 G9 macrophages from mouse bearing reporters for p65 (GFP) and the Tnf promoter (mCherry)
Reagents: siRNA pool against mouse genes, 100 nM
Timing: 16 h of LPS stimulation, after 2 days of siRNA transfection
Challenge: bacterial lipopolysaccharide (Salmonella minnesota R595), 10 ng/ml
Read-out: 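Nuclear mCherry signal of the Tnf promoter reporter measured by imaging after background removal, scaled to each plate median and turned into robust z-scores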
Reading the numbers: Tnf reporter robust z-score: higher = stronger Tnf promoter reporter signal after LPS
Rule for the call: 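Called active when robust z-score is at most -1.3, matching the median of the Tlr4 knock-down control, or over 3; control wells and wells with under 50 cells never active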
Meaning of the calls: active = Tnf reporter clearly lowered or raised; inactive = no clear change in Tnf reporter

Col13a1 (collagen, type XIII, alpha 1) gave Tnf reporter robust z-score -0.05; fewer than 50 cells in well enough cells in well; inactive.
Against Tyrp1 (tyrosinase-related protein 1) the deposit lists Tnf reporter robust z-score 0.98; fewer than 50 cells in well enough cells in well; inactive.
Cant1 (calcium activated nucleotidase 1) gave Tnf reporter robust z-score 0.97; fewer than 50 cells in well enough cells in well; inactive.
Phldb2 (pleckstrin homology like domain, family B, member 2) showed Tnf reporter robust z-score -0.53; fewer than 50 cells in well enough cells in well; inactive.
Knock-down of Psapl1 (prosaposin-like 1) gave: fewer than 50 cells in well fewer than 50 cells per well; well left out of calls; inactive.
Knock-down of Vkorc1 (vitamin K epoxide reductase complex, subunit 1) resulted in: fewer than 50 cells in well fewer than 50 cells per well; well left out of calls; inactive.
After knock-down of Or8b1d (olfactory receptor family 8 subfamily B member 1D), the record shows fewer than 50 cells in well fewer than 50 cells per well; well left out of calls; inactive.
Silencing of Lrrc14 (leucine rich repeat containing 14) resulted in: Tnf reporter robust z-score 2.62; fewer than 50 cells in well enough cells in well; inactive.
Depletion of Ndp (Norrie disease (pseudoglioma) (human)) resulted in: Tnf reporter robust z-score -0.3; fewer than 50 cells in well enough cells in well; inactive.
With knock-down of Spz1 (spermatogenic leucine zipper 1) the results were Tnf reporter robust z-score 3.93; fewer than 50 cells in well enough cells in well; active.
After knock-down of Rilpl1 (Rab interacting lysosomal protein-like 1) the results were Tnf reporter robust z-score 0.14; fewer than 50 cells in well enough cells in well; inactive.
Depletion of Wwc2 (WW, C2 and coiled-coil domain containing 2) came out at: Tnf reporter robust z-score 1.26; fewer than 50 cells in well enough cells in well; inactive.
